The text below walks through data of publication PMC12280211.

The experiment has as its target T1, phosphorylated TANK-binding kinase 1 (phospho-Ser172) (human (endogenous in MDA-MB-468)) (UniProt Q9UHD2).
T1 sequence (chain, phosphoserine at 172): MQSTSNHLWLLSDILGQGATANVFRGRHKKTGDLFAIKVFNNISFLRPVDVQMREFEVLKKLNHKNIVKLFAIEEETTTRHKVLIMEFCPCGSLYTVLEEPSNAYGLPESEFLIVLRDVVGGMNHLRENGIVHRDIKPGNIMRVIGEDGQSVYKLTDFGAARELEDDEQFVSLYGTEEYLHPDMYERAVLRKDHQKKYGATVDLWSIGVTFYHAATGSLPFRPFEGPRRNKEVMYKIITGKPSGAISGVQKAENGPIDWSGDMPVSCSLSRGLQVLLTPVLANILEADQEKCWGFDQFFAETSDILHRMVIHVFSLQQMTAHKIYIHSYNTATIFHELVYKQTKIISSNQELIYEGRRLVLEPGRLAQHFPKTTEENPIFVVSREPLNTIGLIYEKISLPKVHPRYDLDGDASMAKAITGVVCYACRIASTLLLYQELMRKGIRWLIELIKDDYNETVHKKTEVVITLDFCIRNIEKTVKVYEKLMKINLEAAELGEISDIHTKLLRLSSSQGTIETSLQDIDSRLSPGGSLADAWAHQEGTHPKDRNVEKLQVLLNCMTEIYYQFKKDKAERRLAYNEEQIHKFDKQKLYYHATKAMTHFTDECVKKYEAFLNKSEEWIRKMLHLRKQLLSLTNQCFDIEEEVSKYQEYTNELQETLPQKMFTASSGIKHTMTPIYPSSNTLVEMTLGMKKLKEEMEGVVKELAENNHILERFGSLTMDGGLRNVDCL
Kind of experiment: co-IP; pTBK1 precipitated with a phospho-TBK1 (Ser172) antibody on Dynabeads protein A from MDA-MB-468 lysates (50 mM Tris pH 8, 150 mM NaCl, 1% Triton, 1 mM DTT, 1 mM MgCl2), 2 h at 4 °C, Western blot; rabbit IgG as control; cells treated with SAR405, 8 Gy X-rays ± SAR405 or taxol ± SAR405.

Results are given in words; binding and its absence hold for the method and conditions named. In cells and extracts the contact can be indirect. Some results given as binding are weak or reduced against the parent protein; the word gives no strength.

Turning to “selective autophagy receptor p62 (from UniProt Q13501 1-440)”, the binding result is on record as “binds”.
